This is an account of results in article PMC4583546.

Amino acid sequences for entries named in this document (tags omitted). A change or cut given only in a name is not applied to a line headed by its entry.
UniProt Q92630: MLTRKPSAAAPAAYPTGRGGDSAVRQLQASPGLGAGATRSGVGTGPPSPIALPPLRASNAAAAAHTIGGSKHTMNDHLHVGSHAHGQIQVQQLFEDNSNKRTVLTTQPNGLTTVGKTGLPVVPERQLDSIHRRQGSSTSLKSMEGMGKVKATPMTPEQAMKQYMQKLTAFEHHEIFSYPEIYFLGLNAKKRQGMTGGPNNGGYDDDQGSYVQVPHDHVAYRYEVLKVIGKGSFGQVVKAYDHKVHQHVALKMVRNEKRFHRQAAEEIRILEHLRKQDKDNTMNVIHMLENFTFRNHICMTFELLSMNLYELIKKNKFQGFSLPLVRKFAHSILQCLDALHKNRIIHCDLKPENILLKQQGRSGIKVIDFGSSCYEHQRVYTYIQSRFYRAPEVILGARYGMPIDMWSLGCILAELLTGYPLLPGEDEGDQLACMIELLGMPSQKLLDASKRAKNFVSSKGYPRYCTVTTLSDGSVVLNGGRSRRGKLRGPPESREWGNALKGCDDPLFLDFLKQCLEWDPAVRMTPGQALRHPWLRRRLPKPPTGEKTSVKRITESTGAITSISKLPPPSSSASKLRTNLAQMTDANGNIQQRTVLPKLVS
UniProt Q9UHD2: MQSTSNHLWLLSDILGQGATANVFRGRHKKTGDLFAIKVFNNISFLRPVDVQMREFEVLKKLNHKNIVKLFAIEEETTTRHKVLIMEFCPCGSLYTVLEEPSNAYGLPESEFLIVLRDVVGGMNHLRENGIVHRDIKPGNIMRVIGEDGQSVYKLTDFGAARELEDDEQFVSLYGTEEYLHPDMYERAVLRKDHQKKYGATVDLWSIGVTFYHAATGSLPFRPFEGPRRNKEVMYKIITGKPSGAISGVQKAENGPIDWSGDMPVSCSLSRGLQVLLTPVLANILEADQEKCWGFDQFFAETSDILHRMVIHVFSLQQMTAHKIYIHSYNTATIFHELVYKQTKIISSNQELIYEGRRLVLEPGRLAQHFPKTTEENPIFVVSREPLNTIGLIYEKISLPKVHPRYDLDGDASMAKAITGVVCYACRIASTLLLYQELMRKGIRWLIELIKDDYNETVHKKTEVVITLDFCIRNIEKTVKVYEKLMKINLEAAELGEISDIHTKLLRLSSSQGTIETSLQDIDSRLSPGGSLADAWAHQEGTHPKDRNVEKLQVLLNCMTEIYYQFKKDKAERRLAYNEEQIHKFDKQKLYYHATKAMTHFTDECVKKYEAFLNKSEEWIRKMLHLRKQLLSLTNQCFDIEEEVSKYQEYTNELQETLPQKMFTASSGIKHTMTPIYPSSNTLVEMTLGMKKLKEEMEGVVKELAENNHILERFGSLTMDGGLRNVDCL

In this test the target is dual-specificity tyrosine-(Y)-phosphorylation-regulated kinase 2 (DYRK2) (human) (UniProt Q92630). The test is described as follows: co-IP; 293 cells transiently transfected with HA- and Flag-tagged plasmids; lysis in 20 mM Tris pH 7.5, 150 mM NaCl, 1% Triton, 1 mM EDTA; indicated antibody (anti-Flag in Fig 5B, 5D) or control IgG with protein G agarose, 4 h at 4°C; washes with 0.5 M NaCl; immunoblot with anti-HA or anti-Flag; Fig 6E with MG132, with or without overexpressed DYRK2. (Immunoblotting shows a protein as a band on a membrane.)

Results are given in words; binding and its absence hold for the method and conditions named. In cells and extracts the contact can be indirect. Binding calls can cover weak binding; strength is not graded here.

On to “TANK-binding kinase 1 (TBK1) (from UniProt Q9UHD2 1-729) (enzyme)”, for which the binding entry is on record as “binds”.
